According to article doi:10.1101/2024.05.02.592151 (bioRxiv, 2024):
Where two headings read alike, the source gives them in different places. No constants are given. Whether binding was seen depends on the method and setting. Some entries that bind do so weakly or less than the wild type.

Sequences of proteins named here, by UniProt entry; tags and fusion partners are left off. A change or cut given only in a name is not applied to a line headed by its entry.
UniProt Q8NEM0: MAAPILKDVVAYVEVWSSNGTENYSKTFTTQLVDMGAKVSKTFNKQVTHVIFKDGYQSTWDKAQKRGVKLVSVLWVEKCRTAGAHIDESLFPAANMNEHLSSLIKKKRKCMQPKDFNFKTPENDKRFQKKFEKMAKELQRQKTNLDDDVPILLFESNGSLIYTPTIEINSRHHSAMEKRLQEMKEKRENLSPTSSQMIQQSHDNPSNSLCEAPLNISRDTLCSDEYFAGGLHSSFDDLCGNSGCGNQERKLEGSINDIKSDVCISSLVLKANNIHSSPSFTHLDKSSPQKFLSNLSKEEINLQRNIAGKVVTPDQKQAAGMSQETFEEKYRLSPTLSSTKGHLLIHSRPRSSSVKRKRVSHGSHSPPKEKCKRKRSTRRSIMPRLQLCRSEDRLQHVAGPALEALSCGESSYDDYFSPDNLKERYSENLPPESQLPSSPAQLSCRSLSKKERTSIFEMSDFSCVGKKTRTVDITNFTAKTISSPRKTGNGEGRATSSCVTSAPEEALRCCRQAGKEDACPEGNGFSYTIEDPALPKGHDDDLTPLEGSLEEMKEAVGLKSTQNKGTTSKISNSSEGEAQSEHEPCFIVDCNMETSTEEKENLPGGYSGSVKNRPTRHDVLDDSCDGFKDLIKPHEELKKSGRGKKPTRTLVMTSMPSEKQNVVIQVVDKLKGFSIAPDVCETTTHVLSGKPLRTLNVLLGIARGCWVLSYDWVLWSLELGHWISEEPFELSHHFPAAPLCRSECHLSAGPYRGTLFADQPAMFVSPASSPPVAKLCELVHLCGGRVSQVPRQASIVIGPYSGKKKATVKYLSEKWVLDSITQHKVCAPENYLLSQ
UniProt O95347: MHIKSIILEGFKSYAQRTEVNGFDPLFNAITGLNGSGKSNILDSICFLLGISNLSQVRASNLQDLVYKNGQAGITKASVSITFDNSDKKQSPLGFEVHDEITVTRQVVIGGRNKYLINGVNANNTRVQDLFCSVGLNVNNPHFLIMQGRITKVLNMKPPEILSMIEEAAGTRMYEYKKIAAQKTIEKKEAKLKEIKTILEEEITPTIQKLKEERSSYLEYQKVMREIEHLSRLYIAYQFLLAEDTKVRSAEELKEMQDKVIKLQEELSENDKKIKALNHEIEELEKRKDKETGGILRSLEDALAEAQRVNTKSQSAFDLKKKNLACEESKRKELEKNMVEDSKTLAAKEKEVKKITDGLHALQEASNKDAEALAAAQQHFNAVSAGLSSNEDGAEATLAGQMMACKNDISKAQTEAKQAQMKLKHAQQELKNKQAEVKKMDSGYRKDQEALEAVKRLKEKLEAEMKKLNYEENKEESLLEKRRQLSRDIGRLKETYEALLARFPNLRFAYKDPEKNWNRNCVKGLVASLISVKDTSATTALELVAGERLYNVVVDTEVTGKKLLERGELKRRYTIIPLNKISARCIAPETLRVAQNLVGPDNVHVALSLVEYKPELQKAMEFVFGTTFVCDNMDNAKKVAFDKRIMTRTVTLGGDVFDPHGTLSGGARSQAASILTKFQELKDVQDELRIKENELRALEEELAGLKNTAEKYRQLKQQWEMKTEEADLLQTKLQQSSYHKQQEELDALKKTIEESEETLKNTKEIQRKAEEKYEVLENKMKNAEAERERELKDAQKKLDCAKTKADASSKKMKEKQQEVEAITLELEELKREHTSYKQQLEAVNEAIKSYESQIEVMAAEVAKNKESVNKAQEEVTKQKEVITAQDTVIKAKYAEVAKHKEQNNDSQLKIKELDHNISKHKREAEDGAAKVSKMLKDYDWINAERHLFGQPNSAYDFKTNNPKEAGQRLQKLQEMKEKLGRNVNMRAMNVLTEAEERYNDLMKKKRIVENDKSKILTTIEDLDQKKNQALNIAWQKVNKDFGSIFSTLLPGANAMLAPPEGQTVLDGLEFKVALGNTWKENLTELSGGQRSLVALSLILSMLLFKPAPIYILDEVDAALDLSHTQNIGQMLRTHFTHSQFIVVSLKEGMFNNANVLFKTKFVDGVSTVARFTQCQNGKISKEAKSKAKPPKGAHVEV
UniProt Q9NTJ3: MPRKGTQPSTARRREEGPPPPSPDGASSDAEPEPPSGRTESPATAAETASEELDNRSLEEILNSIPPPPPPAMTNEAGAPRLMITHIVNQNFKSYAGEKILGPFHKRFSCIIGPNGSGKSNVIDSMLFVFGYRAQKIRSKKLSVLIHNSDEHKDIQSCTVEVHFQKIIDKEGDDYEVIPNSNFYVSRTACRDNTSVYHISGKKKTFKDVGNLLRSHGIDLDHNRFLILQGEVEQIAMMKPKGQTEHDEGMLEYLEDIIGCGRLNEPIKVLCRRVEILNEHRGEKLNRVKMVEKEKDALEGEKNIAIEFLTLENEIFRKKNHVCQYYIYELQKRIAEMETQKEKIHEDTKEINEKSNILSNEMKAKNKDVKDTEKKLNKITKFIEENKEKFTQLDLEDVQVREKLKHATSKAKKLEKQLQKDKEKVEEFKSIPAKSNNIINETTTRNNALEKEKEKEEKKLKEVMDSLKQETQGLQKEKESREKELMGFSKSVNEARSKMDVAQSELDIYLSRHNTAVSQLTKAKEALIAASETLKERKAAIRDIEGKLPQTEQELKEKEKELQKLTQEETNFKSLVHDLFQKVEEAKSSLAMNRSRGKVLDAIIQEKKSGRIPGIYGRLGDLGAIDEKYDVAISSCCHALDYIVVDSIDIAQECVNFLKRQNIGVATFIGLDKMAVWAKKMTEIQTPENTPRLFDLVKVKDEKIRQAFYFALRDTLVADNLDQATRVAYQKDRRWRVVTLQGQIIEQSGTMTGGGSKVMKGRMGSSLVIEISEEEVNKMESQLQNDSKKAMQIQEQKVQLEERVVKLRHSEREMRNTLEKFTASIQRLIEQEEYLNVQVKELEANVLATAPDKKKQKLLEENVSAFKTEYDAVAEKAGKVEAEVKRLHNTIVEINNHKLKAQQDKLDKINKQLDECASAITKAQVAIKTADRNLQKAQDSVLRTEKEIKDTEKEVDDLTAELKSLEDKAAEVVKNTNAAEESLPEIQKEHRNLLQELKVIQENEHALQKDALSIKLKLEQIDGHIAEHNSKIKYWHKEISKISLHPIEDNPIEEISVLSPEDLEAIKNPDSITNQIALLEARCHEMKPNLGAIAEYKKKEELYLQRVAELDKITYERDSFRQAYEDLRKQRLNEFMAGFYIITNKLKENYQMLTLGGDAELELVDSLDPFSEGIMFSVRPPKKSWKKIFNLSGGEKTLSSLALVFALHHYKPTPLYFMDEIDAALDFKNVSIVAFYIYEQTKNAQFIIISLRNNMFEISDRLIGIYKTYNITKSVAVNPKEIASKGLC
UniProt Q6IBW4: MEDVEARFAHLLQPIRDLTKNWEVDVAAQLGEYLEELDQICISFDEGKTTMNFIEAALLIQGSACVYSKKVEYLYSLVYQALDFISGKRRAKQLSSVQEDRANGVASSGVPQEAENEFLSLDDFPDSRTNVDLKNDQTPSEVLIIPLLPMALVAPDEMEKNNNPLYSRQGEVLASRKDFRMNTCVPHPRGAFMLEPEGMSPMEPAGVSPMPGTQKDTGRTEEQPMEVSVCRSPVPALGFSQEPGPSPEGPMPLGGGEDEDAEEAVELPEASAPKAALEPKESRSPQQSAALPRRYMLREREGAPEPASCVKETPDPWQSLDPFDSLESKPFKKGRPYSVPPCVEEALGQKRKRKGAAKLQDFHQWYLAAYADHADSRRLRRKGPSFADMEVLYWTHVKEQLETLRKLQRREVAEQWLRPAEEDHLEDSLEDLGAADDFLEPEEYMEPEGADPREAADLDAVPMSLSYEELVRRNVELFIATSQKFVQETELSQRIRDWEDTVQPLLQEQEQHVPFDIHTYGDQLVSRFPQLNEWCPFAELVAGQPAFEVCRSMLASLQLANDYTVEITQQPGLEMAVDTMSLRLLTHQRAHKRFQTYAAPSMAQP
UniProt P42695: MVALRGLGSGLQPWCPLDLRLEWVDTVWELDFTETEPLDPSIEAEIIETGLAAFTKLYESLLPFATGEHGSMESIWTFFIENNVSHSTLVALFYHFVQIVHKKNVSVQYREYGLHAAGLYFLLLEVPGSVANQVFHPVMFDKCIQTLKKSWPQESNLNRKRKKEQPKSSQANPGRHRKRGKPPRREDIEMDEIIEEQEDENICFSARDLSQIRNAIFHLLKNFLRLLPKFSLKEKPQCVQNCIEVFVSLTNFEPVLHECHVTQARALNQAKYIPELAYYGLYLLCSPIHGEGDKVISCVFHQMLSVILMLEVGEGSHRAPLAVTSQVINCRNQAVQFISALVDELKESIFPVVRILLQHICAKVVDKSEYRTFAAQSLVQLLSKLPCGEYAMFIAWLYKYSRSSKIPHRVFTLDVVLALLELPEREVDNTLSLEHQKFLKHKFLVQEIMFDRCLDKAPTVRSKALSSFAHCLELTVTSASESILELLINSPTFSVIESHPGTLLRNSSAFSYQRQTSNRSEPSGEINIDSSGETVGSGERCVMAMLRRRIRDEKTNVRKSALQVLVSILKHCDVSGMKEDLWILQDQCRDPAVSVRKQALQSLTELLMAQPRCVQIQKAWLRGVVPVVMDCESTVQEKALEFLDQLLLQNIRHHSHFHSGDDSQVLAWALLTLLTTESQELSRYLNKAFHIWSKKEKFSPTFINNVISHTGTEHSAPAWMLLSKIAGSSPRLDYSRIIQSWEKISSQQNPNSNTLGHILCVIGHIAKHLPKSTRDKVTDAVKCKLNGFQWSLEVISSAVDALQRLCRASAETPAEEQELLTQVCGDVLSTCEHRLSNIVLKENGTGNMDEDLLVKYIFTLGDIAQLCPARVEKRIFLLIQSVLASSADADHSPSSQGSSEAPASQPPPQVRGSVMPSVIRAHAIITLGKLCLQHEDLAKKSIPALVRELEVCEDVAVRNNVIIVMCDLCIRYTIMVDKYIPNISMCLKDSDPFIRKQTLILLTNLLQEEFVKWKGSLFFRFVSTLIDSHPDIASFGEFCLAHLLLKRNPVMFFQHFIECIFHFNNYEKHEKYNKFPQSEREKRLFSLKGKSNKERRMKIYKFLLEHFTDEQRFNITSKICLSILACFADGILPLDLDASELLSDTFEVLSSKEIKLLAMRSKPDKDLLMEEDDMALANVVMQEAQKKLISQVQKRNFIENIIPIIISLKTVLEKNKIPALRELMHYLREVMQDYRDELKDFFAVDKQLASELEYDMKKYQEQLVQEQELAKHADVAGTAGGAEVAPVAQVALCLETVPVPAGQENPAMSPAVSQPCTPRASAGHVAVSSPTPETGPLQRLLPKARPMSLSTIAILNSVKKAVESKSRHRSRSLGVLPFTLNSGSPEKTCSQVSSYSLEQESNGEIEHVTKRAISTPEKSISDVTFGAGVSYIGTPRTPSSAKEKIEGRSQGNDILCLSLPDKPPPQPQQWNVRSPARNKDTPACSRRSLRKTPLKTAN
UniProt Q86XI2: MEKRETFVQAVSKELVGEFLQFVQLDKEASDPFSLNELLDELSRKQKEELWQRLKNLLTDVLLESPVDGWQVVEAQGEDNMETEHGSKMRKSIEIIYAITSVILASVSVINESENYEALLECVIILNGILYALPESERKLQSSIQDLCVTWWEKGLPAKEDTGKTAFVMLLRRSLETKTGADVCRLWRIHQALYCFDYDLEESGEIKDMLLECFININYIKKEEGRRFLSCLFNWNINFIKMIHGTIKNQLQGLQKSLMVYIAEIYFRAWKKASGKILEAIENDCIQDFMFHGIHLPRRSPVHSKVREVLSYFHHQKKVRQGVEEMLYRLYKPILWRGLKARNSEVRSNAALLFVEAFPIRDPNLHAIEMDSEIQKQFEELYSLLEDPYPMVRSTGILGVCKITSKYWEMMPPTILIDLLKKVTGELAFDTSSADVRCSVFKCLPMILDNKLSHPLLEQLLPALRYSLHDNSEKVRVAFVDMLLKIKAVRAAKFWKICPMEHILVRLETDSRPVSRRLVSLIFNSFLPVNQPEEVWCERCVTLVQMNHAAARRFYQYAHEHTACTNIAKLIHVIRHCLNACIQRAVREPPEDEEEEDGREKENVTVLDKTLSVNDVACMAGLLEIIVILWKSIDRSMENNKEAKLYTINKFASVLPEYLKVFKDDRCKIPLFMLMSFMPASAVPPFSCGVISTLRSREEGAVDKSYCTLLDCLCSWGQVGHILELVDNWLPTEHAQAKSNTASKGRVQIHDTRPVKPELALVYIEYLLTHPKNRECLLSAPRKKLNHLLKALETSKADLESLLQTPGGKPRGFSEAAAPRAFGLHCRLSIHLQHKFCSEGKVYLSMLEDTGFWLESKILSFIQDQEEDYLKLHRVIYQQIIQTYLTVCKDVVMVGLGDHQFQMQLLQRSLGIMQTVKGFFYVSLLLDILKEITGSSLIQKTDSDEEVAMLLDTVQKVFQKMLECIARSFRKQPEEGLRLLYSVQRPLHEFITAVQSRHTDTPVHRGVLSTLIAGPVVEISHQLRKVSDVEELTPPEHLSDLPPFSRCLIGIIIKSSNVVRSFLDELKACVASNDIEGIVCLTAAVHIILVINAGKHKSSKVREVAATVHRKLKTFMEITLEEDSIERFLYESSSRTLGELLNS

Columns and labels:
[1] = biological target: T1, 5-FAM-MCPH1_(407-424) peptide (UniProt Q8NEM0); assay: fluorescence polarisation
T1 sequence (peptide, 5-FAM label): CGESSYDDYFSPDNLKER

[2] = biological target: T1, 5-FAM-MCPH1_(407-424) peptide; assay: fluorescence polarisation; remark: listed apart in the source

## condensin II pentamer (recombinant, human) (from UniProt O95347;Q9NTJ3;Q6IBW4;P42695;Q86XI2) (complex)
[1]
  binding: binds
[2]
  binding: binds
